Source: PubChem BioAssay AID1159584 (Peter MacCallum Cancer Centre, 2016)
Screen: 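Genes whose loss is lethal only together with E-cadherin loss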 (primary screen). System: human MCF10A breast epithelial cells, parental and CDH1-null. Reagents: siRNA against human genes. Detection: 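ATP luminescence (CellTiter-Glo) viability per line relative to mean mock wells over all plates, and the ratio of CDH1-null to parental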. Scale: CDH1-null / parental viability ratio: higher = CDH1-null cells survive relatively better than parental; CDH1-null viability vs mock: higher = more viable CDH1-null cells; parental viability vs mock: higher = more viable parental cells.
This is an unselected part of about 18,000 reagents tested. Not stated in the record: the amount of reagent, the time to read-out.

| gene | CDH1-null / parental viability ratio | CDH1-null viability vs mock (fraction of mock) | parental viability vs mock (fraction of mock) |
| --- | --- | --- | --- |
| KIF13B | 1.01 | 1.01 | 1 |
| ZCCHC12 | 0.51 | 0.43 | 0.84 |
| PES1 | 1 | 0.46 | 0.46 |
| REXO1 | 0.99 | 0.97 | 0.98 |
| CFL2 | 0.88 | 0.66 | 0.75 |
| GBP6 | 1.02 | 0.84 | 0.82 |
| MGST2 | 1 | 0.68 | 0.68 |
| ESPL1 | 1.22 | 0.44 | 0.36 |
| LPCAT4 | 0.47 | 0.41 | 0.88 |
| DNAAF5 | 1.15 | 0.78 | 0.68 |
| ERCC3 | 0.86 | 0.71 | 0.83 |
| PARP14 | 0.97 | 1.06 | 1.09 |
| BUB1B | 0.91 | 0.78 | 0.86 |
| KRT78 | 1.02 | 0.88 | 0.86 |
| PDE11A | 0.82 | 0.77 | 0.94 |
| CHRNA10 | 0.83 | 0.86 | 1.03 |
| EDA | 1.04 | 1.02 | 0.98 |
| KRTAP5-8 | 1.19 | 0.92 | 0.77 |
| TSLIG3C | 1 | 0.78 | 0.78 |
| COLQ | 1.1 | 0.68 | 0.62 |
| TMEM167B | 0.9 | 0.85 | 0.94 |
| DOCK1 | 1.15 | 0.9 | 0.78 |
| MMP8 | 1.21 | 0.94 | 0.78 |
| MAGEA3 | 0.98 | 0.9 | 0.92 |
| OR1N1 | 1.04 | 0.78 | 0.75 |
| PF4V1 | 0.94 | 0.96 | 1.02 |
| RTL5 | 1.22 | 0.98 | 0.8 |
| NRP1 | 1.05 | 0.96 | 0.91 |
| IFT80 | 0.92 | 0.79 | 0.86 |
| SERPINA6 | 0.83 | 0.4 | 0.48 |
| TEKT3 | 0.62 | 0.4 | 0.64 |
| TPT1 | 0.85 | 0.68 | 0.8 |
| ZFYVE28 | 1.15 | 0.62 | 0.54 |
| POLD4 | 1.12 | 0.56 | 0.5 |
| CDH11 | 1.13 | 1.04 | 0.92 |
| FLNB | 0.93 | 0.7 | 0.75 |
| TMEM223 | 1.25 | 1.21 | 0.97 |
| CORT | 0.87 | 0.54 | 0.62 |
| CCDC186 | 1.04 | 1.11 | 1.07 |
| AGBL5 | 1.23 | 0.74 | 0.6 |
| LDHAL6A | 1.17 | 0.97 | 0.83 |
| HNRNPUL1 | 1.01 | 1.04 | 1.03 |
| SEC24B | 1.24 | 1.02 | 0.82 |
| ADAMTS18 | 1.09 | 0.74 | 0.68 |
| GBA1 | 0.93 | 0.84 | 0.9 |
| PMEPA1 | 1.05 | 0.64 | 0.61 |
| CLRN1 | 0.98 | 0.63 | 0.64 |
| PRICKLE2 | 0.79 | 0.6 | 0.76 |
| PGRMC2 | 0.95 | 0.84 | 0.88 |
| MRPL43 | 1.15 | 0.82 | 0.71 |
| CNTNAP1 | 1.03 | 1 | 0.97 |
| F11 | 1.21 | 0.68 | 0.56 |
| CYP26A1 | 1.13 | 0.77 | 0.68 |
| KCNH7 | 1.13 | 0.96 | 0.85 |
| ZNF407 | 1.22 | 1.12 | 0.92 |
| HEMK1 | 0.96 | 0.48 | 0.5 |
| TPP2 | 1.17 | 0.84 | 0.72 |
| CYP11A1 | 0.96 | 0.94 | 0.98 |
| OGT | 1 | 0.8 | 0.8 |
| HADHA | 0.94 | 0.81 | 0.86 |
| OR2C1 | 1.2 | 0.98 | 0.82 |
| ZNHIT1 | 1.26 | 0.92 | 0.73 |
| PAK1 | 0.92 | 0.7 | 0.76 |
| ANAPC10 | 1.2 | 1.12 | 0.93 |
| TKTL1 | 0.94 | 0.45 | 0.48 |
| DDX53 | 0.99 | 0.82 | 0.83 |
| MAPRE1 | 0.87 | 0.86 | 0.99 |
| COG3 | 0.96 | 1.03 | 1.07 |
| CEP63 | 0.93 | 0.76 | 0.82 |
| XRCC3 | 0.92 | 0.88 | 0.96 |
| ATAD5 | 0.96 | 0.82 | 0.85 |
| SSX2IP | 0.92 | 0.68 | 0.74 |
| CTNNA3 | 1.14 | 1.07 | 0.94 |
| MS4A2 | 1.35 | 0.62 | 0.46 |
| SS18 | 0.87 | 0.78 | 0.9 |
| NXNL2 | 1.16 | 0.74 | 0.64 |
| NPPC | 0.92 | 0.55 | 0.6 |
| TREH | 0.9 | 0.81 | 0.9 |
| ZNF747 | 0.91 | 0.61 | 0.67 |
| CHL1 | 1.06 | 1.08 | 1.02 |
| DYNLRB1 | 0.97 | 0.93 | 0.96 |
| U2AF1L4 | 1.53 | 0.84 | 0.55 |
| L3HYPDH | 1.03 | 1 | 0.97 |
| MMUT | 0.96 | 0.77 | 0.8 |
| ETFA | 0.74 | 0.7 | 0.94 |
| MTCH1 | 1.35 | 1.05 | 0.78 |
| PLCD3 | 0.94 | 0.5 | 0.53 |

Ordered by “parental viability vs mock (fraction of mock)” (ascending): 11 of the entries above.
| gene | CDH1-null / parental viability ratio | CDH1-null viability vs mock (fraction of mock) | parental viability vs mock (fraction of mock) |
| --- | --- | --- | --- |
| POLD4 | 1.12 | 0.56 | 0.5 |
| AGBL5 | 1.23 | 0.74 | 0.6 |
| CORT | 0.87 | 0.54 | 0.62 |
| ADAMTS18 | 1.09 | 0.74 | 0.68 |
| FLNB | 0.93 | 0.7 | 0.75 |
| SEC24B | 1.24 | 1.02 | 0.82 |
| LDHAL6A | 1.17 | 0.97 | 0.83 |
| CDH11 | 1.13 | 1.04 | 0.92 |
| TMEM223 | 1.25 | 1.21 | 0.97 |
| HNRNPUL1 | 1.01 | 1.04 | 1.03 |
| CCDC186 | 1.04 | 1.11 | 1.07 |
